PubChem BioAssay AID1508597 | Cure First, 2020
The whole screen tested about 2,100 reagents; this is a random part of them. 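Calls flag viability under 80% in either arm, not effects specific to rucaparib; the reference for percent is not stated.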 Unmarked entries are inactive. Some reagents were tested in more than one well and are listed for each. No sequences are given here. Not stated in the record: the 100% reference.

Test: 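Genes whose silencing sensitises or protects ovarian cancer cells against rucaparib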 (primary screen)
Cell system: human ovarian carcinoma lines grown from tumours: OCI-P5x (papillary serous) and OCI-C5x (clear cell)
Knock-down reagent: siRNA pool against human genes, 1.25 pmol siRNA per well
Duration: 72 h or 96 h, depending on the cell culture
Treatment: rucaparib 20 µM (about IC30) or vehicle, present until read-out
Measured: 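Luminescent ATP-based viability assay read 72 or 96 h after transfection, depending on culture, given as normalised percent viability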
Scale: viability, normalised: higher = more viable cells remaining
Rule for the call: 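Active when normalised viability falls below 80 percent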
Calls: active = viability under 80%; inactive = viability 80% or more

For BRDT, rucaparib or vehicle Rucaparib, cell line OCI-C5x (clear cell), technical replicate 1, the entry reads viability, normalised (%) = 70.1 (active).
For BRDT, rucaparib or vehicle Rucaparib, cell line OCI-C5x (clear cell), technical replicate 1, the entry reads viability, normalised (%) = 38.2 (active).
BRDT, rucaparib or vehicle Rucaparib, cell line OCI-C5x (clear cell), technical replicate 2 gave viability, normalised (%) = 58.7 (active).
For BRDT, rucaparib or vehicle Rucaparib, cell line OCI-C5x (clear cell), technical replicate 2 the deposit lists viability, normalised (%) = 55.7 (active).
BRDT, rucaparib or vehicle Rucaparib, cell line OCI-C5x (clear cell), technical replicate 3 gave viability, normalised (%) = 53.7 (active).
BRDT, rucaparib or vehicle Rucaparib, cell line OCI-C5x (clear cell), technical replicate 3 gave viability, normalised (%) = 47.1 (active).
With BRDT, rucaparib or vehicle Rucaparib, cell line OCI-P5x (serous), technical replicate 1, the entry reads viability, normalised (%) = 75.3 (active).
For BRDT, rucaparib or vehicle Rucaparib, cell line OCI-P5x (serous), technical replicate 1, the entry reads viability, normalised (%) = 56.2 (active).
BRDT, rucaparib or vehicle Rucaparib, cell line OCI-P5x (serous), technical replicate 2 showed viability, normalised (%) = 56.6 (active).
For BRDT, rucaparib or vehicle Rucaparib, cell line OCI-P5x (serous), technical replicate 2 the deposit lists viability, normalised (%) = 82.2.
BRDT, rucaparib or vehicle Rucaparib, cell line OCI-P5x (serous), technical replicate 3 showed viability, normalised (%) = 87.8.
BRDT, rucaparib or vehicle Rucaparib, cell line OCI-P5x (serous), technical replicate 3 gave viability, normalised (%) = 51.1 (active).
For BRDT, rucaparib or vehicle Vehicle, cell line OCI-C5x (clear cell), technical replicate 1, the values are viability, normalised (%) = 50.7 (active).
With BRDT, rucaparib or vehicle Vehicle, cell line OCI-C5x (clear cell), technical replicate 1 the deposit lists viability, normalised (%) = 50.8 (active).
BRDT, rucaparib or vehicle Vehicle, cell line OCI-C5x (clear cell), technical replicate 2 gave viability, normalised (%) = 50.4 (active).
For BRDT, rucaparib or vehicle Vehicle, cell line OCI-C5x (clear cell), technical replicate 2, the entry reads viability, normalised (%) = 49.1 (active).
With BRDT, rucaparib or vehicle Vehicle, cell line OCI-C5x (clear cell), technical replicate 3, the entry reads viability, normalised (%) = 40.7 (active).
For BRDT, rucaparib or vehicle Vehicle, cell line OCI-C5x (clear cell), technical replicate 3 the deposit lists viability, normalised (%) = 60 (active).
BRDT, rucaparib or vehicle Vehicle, cell line OCI-P5x (serous), technical replicate 1 scored viability, normalised (%) = 54 (active).
BRDT, rucaparib or vehicle Vehicle, cell line OCI-P5x (serous), technical replicate 1 showed viability, normalised (%) = 69.9 (active).
BRDT, rucaparib or vehicle Vehicle, cell line OCI-P5x (serous), technical replicate 2 scored viability, normalised (%) = 71.2 (active).
With BRDT, rucaparib or vehicle Vehicle, cell line OCI-P5x (serous), technical replicate 2 the deposit lists viability, normalised (%) = 44.9 (active).
With BRDT, rucaparib or vehicle Vehicle, cell line OCI-P5x (serous), technical replicate 3 the deposit lists viability, normalised (%) = 80.9.
For BRDT, rucaparib or vehicle Vehicle, cell line OCI-P5x (serous), technical replicate 3 the deposit lists viability, normalised (%) = 62.9 (active).
CAMKK2, rucaparib or vehicle Rucaparib, cell line OCI-C5x (clear cell), technical replicate 1 scored viability, normalised (%) = 47.3 (active).
CAMKK2, rucaparib or vehicle Rucaparib, cell line OCI-C5x (clear cell), technical replicate 2 showed viability, normalised (%) = 52.8 (active).
For CAMKK2, rucaparib or vehicle Rucaparib, cell line OCI-C5x (clear cell), technical replicate 3, the entry reads viability, normalised (%) = 56.7 (active).
For CAMKK2, rucaparib or vehicle Rucaparib, cell line OCI-P5x (serous), technical replicate 1, the values are viability, normalised (%) = 82.7.
For CAMKK2, rucaparib or vehicle Rucaparib, cell line OCI-P5x (serous), technical replicate 2, the entry reads viability, normalised (%) = 74.1 (active).
CAMKK2, rucaparib or vehicle Rucaparib, cell line OCI-P5x (serous), technical replicate 3 gave viability, normalised (%) = 88.9.
For CAMKK2, rucaparib or vehicle Vehicle, cell line OCI-C5x (clear cell), technical replicate 1 the deposit lists viability, normalised (%) = 60.5 (active).
CAMKK2, rucaparib or vehicle Vehicle, cell line OCI-C5x (clear cell), technical replicate 2 scored viability, normalised (%) = 64.9 (active).
For CAMKK2, rucaparib or vehicle Vehicle, cell line OCI-C5x (clear cell), technical replicate 3, the entry reads viability, normalised (%) = 59.6 (active).
CAMKK2, rucaparib or vehicle Vehicle, cell line OCI-P5x (serous), technical replicate 1 scored viability, normalised (%) = 85.1.
With CAMKK2, rucaparib or vehicle Vehicle, cell line OCI-P5x (serous), technical replicate 2 the deposit lists viability, normalised (%) = 74.9 (active).
CAMKK2, rucaparib or vehicle Vehicle, cell line OCI-P5x (serous), technical replicate 3 showed viability, normalised (%) = 72.3 (active).
For BRD7, rucaparib or vehicle Rucaparib, cell line OCI-C5x (clear cell), technical replicate 1, the values are viability, normalised (%) = 68.9 (active).
With BRD7, rucaparib or vehicle Rucaparib, cell line OCI-C5x (clear cell), technical replicate 2, the values are viability, normalised (%) = 49.1 (active).
BRD7, rucaparib or vehicle Rucaparib, cell line OCI-C5x (clear cell), technical replicate 3 gave viability, normalised (%) = 41.4 (active).
BRD7, rucaparib or vehicle Rucaparib, cell line OCI-P5x (serous), technical replicate 1 showed viability, normalised (%) = 71.2 (active).
BRD7, rucaparib or vehicle Rucaparib, cell line OCI-P5x (serous), technical replicate 2 scored viability, normalised (%) = 83.2.
For BRD7, rucaparib or vehicle Rucaparib, cell line OCI-P5x (serous), technical replicate 3 the deposit lists viability, normalised (%) = 81.5.
BRD7, rucaparib or vehicle Vehicle, cell line OCI-C5x (clear cell), technical replicate 1 scored viability, normalised (%) = 58.3 (active).
BRD7, rucaparib or vehicle Vehicle, cell line OCI-C5x (clear cell), technical replicate 2 gave viability, normalised (%) = 61.4 (active).
BRD7, rucaparib or vehicle Vehicle, cell line OCI-C5x (clear cell), technical replicate 3 gave viability, normalised (%) = 43.2 (active).
BRD7, rucaparib or vehicle Vehicle, cell line OCI-P5x (serous), technical replicate 1 gave viability, normalised (%) = 105.
BRD7, rucaparib or vehicle Vehicle, cell line OCI-P5x (serous), technical replicate 2 showed viability, normalised (%) = 75.8 (active).
For BRD7, rucaparib or vehicle Vehicle, cell line OCI-P5x (serous), technical replicate 3, the entry reads viability, normalised (%) = 107.
